# Reference: article PMC7311640, “The Beta Subunit of Non-bifurcating NADH-Dependent [FeFe]-Hydrogenases Differs From Those of Multimeric Electron-Bifurcating [FeFe]-Hydrogenases” (Frontiers in Microbiology, 2020)
# No constants are given. Whether binding was seen depends on the method and setting. Some entries that bind do so weakly or less than the wild type. Where a sequence is shown, tags or fusion partners need not be part of it.
# T1: HydA, alpha subunit of the Syntrophus aciditrophicus [FeFe]-hydrogenase HydAB (SYN_01370 gene product) with N-terminal His tag (Syntrophus aciditrophicus) (UniProt Q2LSB7)
# T1 sequence: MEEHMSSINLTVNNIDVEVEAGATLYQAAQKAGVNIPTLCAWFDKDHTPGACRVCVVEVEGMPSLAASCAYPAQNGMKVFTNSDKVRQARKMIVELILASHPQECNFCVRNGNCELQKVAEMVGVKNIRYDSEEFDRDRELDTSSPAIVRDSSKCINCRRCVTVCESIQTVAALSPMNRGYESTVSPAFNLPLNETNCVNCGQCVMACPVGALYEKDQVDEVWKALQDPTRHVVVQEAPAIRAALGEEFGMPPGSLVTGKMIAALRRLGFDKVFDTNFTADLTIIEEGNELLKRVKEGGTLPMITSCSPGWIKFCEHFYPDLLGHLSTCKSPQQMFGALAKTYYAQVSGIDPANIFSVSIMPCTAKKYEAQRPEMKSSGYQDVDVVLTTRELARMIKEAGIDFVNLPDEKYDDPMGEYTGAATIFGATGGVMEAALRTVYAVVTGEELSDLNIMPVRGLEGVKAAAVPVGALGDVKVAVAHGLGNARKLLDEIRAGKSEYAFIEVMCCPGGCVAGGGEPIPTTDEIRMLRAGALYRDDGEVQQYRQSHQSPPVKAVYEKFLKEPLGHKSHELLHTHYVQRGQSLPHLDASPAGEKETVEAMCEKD
# B1: HydB, flavin-containing beta subunit of the Syntrophus aciditrophicus [FeFe]-hydrogenase HydAB (SYN_01369 gene product) (enzyme, UniProt Q2LSB6 1-607)
# chain: MITVQDIENVIAARGNAREHLMAILRDLENLSGRNVLDVSVLNTLAMKMDLPQSAISGFTSFYTMFSTEPRAKFIIRVCKSGPCHVMGARTIFDVIENHLGIRAGETTADGLFHLEECECLGLCSAAPAMMVNYDMHGNLSESNIKEILDSYSAREPAFKAEYGPGIEGRAVIINNSQQTRRLLENVGKVDPASIESYLQNGGYEAARKAFAEYSPEQVIGIVKDSGLRGRGGAGFPVGVKWSFVPKGEMQKYVICNADEGEPGTFKDRVLMEENPQQLIEGMLLCGYAIGATLGYIYVRGEYRRSIERLQSAIDQARAKGFLGKKIFGSNFDFDIFVKEGGGAYVCGEETSLINSMEGKRGYPRVRPPFPAAAGFMGMPSNVNNVETLSSIPMIVARGADWFKSVGTATCAGTKLYCLSGKVNQTGLVELPMGATLRQMIDTFGGGMKSGSSFKFAQVGGAAGGILGADLMDLPLDIDSTIKAGVTLGSGVVLVCDQETCAVDFLLNVLNFFEHESCGQCIPCKLGTSQLHYVAQKFAMREAEEKDIQLMIDTAKMMKLASLCALGQSPILPIETMIRNFREEFVKHCDPDYECPQCDASLQAYYL
# Experiments:
# [1] = target: T1, HydA, alpha subunit of the Syntrophus aciditrophicus [FeFe]-hydrogenase HydAB (SYN_01370 gene product) with N-terminal His tag (Syntrophus aciditrophicus); assay: nickel-affinity co-purification; His-tagged HydA and untagged HydB co-expressed in E. coli; cell-free extract on HisTrap HP, washed with 50 mM imidazole, eluted with 250 mM imidazole, anaerobic; fraction analysed by SDS-PAGE and HPLC-MS/MS peptide identification
# [2] = target: T1, HydA, alpha subunit of the Syntrophus aciditrophicus [FeFe]-hydrogenase HydAB (SYN_01370 gene product) with N-terminal His tag (Syntrophus aciditrophicus); assay: SEC; purified HydAB fraction on Superdex 200 10/300 GL calibrated with gel filtration standards; both purified
binder,measurement,setting,value
B1,binding,[1],binds
same,binding,[2],binds
